The other results are listed elsewhere or left out.
Compound: CON(C)C(=O)N1N=C(c2cc(F)ccc2F)S[C@@]1(CCCN)c1ccccc1 [filanesib]
Experiment: log2 fold change, soluble protein after heating vs DMSO (PISA); higher = thermal stabilisation; K562 cells, 10 uM, 30 min; active = over 0.2 and 3.5 SD of the protein, either way, in both replicates (recomputed)
Method in brief: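 K562 cells at 2×10^6 cells/mL were given 10 μM compound for 30 min. Aliquots then went through 3 min of heating across 48°C-58°C, were pooled, and were extracted in PBS with 0.5% NP-40 at 4°C, and the supernatant after 21,000xg for 90 min was quantified by TMTpro 16plex LC-MS/MS with channel sums equalised. Thermal stability relative to control samples, from duplicates, is given as log2 fold change.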

Protein sequences, listed by entry. Tags and fused reporters are not part of them. Lines headed by an entry give the natural chain unless they say otherwise; changes in a name come on top.
UniProt Q00059: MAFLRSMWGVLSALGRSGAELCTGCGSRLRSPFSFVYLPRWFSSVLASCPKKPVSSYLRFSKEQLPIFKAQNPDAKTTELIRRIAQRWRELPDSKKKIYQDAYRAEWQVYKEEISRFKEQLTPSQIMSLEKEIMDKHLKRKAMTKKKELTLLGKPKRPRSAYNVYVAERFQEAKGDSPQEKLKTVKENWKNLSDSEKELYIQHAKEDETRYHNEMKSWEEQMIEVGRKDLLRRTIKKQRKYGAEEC
UniProt Q96RS0: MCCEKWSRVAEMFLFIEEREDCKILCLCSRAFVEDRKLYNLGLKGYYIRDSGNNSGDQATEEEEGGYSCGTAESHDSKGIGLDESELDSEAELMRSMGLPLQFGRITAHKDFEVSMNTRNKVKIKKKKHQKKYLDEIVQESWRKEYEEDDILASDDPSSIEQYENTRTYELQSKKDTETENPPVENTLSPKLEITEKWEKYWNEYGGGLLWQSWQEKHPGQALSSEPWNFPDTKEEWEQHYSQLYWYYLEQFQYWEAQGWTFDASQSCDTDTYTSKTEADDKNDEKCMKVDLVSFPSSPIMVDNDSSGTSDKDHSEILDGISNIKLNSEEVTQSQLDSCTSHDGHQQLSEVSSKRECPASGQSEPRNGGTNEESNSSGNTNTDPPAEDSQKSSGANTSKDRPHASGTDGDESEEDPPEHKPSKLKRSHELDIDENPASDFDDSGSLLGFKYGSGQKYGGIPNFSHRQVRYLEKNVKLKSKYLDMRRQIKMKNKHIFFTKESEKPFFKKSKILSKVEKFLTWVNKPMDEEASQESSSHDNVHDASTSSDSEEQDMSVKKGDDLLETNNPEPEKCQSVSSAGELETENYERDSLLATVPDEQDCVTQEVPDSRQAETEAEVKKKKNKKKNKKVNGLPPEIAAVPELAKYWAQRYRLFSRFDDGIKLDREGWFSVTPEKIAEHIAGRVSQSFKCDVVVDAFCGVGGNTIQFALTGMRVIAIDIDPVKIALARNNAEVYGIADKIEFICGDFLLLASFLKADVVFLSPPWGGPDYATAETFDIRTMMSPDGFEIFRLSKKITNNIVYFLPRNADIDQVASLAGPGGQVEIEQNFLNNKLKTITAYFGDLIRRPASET
UniProt Q92609: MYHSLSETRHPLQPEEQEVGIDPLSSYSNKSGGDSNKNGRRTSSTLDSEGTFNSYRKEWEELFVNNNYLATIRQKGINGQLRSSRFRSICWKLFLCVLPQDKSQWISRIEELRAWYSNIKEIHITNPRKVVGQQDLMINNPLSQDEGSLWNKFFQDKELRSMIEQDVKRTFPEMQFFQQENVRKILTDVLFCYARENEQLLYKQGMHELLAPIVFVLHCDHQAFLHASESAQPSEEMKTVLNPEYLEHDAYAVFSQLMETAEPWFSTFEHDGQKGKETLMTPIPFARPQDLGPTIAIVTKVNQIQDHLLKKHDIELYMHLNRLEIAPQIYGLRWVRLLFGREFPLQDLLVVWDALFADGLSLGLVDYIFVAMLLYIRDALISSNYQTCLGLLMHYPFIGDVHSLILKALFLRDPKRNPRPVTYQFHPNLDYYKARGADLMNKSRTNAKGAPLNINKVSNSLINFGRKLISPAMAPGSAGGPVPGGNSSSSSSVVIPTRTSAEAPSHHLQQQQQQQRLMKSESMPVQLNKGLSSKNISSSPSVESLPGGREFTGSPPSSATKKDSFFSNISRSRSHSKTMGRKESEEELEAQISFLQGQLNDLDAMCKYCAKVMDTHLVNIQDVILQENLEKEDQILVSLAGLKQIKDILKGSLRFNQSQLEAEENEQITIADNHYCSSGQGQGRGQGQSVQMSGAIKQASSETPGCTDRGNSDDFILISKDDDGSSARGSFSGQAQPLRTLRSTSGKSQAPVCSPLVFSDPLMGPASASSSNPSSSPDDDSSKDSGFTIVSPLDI
UniProt Q9UDY2: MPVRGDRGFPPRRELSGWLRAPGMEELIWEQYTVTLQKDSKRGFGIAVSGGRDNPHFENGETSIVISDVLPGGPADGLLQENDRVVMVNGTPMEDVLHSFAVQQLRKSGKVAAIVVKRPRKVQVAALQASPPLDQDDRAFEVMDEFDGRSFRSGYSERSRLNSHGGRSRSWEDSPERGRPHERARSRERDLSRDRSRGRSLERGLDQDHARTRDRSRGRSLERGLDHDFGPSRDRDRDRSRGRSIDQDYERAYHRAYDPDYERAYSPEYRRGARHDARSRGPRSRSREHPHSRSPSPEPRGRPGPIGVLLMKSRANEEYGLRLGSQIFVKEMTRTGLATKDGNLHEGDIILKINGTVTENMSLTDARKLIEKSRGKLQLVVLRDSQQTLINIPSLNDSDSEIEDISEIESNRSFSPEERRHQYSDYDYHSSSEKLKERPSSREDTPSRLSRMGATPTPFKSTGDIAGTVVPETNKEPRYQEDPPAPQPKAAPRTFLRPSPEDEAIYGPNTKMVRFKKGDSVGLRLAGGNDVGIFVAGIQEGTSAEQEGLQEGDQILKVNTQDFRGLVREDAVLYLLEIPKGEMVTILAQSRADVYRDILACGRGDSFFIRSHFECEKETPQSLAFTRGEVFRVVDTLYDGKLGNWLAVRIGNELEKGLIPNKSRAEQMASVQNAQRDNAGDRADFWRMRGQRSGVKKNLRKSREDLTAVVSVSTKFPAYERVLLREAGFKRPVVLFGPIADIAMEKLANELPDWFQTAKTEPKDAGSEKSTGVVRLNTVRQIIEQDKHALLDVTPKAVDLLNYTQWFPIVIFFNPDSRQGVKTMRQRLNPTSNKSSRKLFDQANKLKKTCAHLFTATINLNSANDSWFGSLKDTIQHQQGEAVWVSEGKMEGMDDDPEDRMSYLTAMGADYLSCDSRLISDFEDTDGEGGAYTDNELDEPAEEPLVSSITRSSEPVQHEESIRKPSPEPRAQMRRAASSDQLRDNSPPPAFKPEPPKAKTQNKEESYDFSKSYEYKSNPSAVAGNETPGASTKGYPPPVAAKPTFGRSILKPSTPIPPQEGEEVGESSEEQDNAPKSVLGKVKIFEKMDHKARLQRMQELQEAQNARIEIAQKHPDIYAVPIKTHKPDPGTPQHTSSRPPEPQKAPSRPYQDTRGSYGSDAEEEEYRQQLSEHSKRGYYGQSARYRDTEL
UniProt Q9P016: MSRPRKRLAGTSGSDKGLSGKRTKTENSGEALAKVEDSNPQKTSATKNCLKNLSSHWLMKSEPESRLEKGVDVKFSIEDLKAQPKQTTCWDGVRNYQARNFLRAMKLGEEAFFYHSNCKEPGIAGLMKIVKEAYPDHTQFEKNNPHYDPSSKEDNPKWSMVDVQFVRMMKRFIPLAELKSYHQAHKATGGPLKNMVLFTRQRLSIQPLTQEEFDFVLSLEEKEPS
UniProt Q9UPU7: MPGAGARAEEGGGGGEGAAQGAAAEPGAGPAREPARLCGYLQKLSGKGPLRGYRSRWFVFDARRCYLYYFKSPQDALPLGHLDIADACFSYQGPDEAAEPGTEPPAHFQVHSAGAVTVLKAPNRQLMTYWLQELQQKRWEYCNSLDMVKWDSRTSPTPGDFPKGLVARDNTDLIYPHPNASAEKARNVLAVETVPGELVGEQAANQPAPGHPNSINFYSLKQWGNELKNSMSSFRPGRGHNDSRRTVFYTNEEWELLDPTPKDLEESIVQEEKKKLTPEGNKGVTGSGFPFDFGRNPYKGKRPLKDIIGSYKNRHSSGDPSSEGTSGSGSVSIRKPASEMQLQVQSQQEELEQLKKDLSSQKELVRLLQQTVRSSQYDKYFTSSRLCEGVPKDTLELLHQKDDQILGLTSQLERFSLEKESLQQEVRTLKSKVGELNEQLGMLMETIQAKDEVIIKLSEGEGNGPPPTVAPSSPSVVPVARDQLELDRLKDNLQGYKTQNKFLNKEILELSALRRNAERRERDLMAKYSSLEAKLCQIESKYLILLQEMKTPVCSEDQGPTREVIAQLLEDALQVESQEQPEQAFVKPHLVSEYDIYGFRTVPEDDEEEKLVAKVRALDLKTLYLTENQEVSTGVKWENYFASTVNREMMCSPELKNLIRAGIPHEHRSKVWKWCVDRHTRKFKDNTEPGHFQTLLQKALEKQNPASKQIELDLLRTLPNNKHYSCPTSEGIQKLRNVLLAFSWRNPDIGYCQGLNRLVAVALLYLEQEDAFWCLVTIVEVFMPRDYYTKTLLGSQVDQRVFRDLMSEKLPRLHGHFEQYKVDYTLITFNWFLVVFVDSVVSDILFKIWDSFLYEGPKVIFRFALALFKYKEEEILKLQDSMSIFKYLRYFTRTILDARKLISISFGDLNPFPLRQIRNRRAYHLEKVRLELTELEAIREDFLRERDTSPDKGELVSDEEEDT
UniProt Q9BTW9: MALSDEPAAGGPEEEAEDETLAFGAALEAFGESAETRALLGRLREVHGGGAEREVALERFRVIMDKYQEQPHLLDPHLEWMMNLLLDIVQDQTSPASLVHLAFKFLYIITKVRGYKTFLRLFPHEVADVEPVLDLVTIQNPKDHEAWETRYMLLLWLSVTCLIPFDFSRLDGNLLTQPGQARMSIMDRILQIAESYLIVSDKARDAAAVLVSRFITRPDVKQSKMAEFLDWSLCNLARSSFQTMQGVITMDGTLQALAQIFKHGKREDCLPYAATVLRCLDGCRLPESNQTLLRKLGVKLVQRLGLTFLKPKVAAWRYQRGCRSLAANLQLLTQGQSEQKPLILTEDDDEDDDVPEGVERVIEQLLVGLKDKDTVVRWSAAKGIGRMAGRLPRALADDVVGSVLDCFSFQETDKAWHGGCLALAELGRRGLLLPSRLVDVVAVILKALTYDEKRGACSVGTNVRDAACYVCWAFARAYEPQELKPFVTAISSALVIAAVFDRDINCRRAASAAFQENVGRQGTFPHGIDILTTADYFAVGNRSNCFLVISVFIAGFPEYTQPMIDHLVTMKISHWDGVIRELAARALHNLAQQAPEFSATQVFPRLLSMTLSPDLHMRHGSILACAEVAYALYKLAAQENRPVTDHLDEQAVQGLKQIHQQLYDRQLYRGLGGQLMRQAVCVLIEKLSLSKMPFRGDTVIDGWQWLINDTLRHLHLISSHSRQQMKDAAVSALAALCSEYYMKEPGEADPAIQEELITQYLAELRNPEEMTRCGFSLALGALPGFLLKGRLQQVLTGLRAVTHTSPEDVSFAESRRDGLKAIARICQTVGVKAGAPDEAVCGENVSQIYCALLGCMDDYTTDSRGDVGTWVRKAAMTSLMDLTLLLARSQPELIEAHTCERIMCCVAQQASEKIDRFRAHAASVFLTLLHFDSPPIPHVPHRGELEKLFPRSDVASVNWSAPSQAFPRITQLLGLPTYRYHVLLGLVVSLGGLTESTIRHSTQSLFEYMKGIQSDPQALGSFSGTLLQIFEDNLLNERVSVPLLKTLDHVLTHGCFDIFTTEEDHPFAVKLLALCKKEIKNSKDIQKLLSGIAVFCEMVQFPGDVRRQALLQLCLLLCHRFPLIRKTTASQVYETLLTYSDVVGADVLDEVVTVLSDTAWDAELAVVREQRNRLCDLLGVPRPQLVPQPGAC
UniProt Q8IWB9: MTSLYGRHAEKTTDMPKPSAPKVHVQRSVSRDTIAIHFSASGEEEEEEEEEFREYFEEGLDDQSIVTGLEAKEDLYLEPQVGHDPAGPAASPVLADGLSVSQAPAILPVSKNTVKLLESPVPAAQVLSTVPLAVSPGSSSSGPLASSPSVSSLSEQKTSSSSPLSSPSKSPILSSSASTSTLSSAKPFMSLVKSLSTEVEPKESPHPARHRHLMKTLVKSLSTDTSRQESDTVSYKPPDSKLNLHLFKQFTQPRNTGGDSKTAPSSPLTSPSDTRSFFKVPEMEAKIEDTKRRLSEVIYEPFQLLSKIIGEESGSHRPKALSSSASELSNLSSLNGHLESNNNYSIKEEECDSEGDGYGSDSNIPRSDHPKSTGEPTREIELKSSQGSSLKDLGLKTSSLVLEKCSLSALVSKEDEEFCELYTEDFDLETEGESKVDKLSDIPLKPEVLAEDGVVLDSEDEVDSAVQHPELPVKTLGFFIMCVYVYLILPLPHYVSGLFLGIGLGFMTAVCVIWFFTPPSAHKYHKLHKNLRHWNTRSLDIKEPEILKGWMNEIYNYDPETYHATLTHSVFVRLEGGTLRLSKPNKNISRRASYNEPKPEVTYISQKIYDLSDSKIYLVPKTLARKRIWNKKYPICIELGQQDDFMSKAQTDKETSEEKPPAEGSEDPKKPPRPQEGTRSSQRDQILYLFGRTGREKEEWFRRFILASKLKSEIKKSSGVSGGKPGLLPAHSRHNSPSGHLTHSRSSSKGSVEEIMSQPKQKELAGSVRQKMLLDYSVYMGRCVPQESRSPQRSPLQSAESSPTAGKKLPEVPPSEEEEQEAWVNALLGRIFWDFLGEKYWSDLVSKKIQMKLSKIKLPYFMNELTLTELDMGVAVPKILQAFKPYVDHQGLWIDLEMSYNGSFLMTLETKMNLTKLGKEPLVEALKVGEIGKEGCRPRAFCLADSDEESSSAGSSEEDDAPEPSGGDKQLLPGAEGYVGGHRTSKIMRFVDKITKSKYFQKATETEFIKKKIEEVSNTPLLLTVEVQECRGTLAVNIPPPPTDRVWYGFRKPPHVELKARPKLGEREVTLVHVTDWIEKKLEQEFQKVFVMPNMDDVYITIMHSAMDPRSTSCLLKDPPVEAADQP

log2 fold change, inactive:
TERF2IP (UniProt Q9NYB0) 0.052
TBC1D23 (UniProt Q9NUY8) -0.184
TFAM (UniProt Q00059) 0.048
TGS1 (UniProt Q96RS0) -0.064
TENT5C (UniProt Q5VWP2) 0.049
TIPRL (UniProt O75663) -0.063
TFCP2 (UniProt Q12800) 0.04
TBC1D5 isoform 2 (UniProt Q92609) -0.01
TBC1D20 isoform 3 (UniProt Q96BZ9) -0.023
TGFBI (UniProt Q15582) -0.054
TJP1 (UniProt Q07157) 0.035
TFPI (UniProt P10646) 0.16
TFDP1 (UniProt Q14186) -0.074
TBRG4 (UniProt Q969Z0) -0.551
TJP2 isoform 7 (UniProt Q9UDY2) 0.093
TIFA (UniProt Q96CG3) 0.036
THYN1 (UniProt Q9P016) -0.009
TBC1D2B (UniProt Q9UPU7) 0.083
TBCD (UniProt Q9BTW9) -0.063
TBK1 (UniProt Q9UHD2) 0.05
TBC1D24 (UniProt Q9ULP9) -0.145
TK2 isoform 6 (UniProt O00142) -0.012
TEX2 isoform 2 (UniProt Q8IWB9) 0.153

A section from the list above, for reference:
log2 fold change, inactive:
TIPRL (UniProt O75663) -0.063
TFCP2 (UniProt Q12800) 0.04
TBC1D5 isoform 2 (UniProt Q92609) -0.01
TBC1D20 isoform 3 (UniProt Q96BZ9) -0.023

From the supplement of paper PMC10849652
